Measurements reported in publication PMC9436914.
These are yes or no findings as the source states them, for the method shown. In cells and extracts the contact can be indirect. Some entries that bind do so weakly or less than the wild type.

Protein sequences, listed by entry. Tags and fused reporters are not part of them.
UniProt P35222: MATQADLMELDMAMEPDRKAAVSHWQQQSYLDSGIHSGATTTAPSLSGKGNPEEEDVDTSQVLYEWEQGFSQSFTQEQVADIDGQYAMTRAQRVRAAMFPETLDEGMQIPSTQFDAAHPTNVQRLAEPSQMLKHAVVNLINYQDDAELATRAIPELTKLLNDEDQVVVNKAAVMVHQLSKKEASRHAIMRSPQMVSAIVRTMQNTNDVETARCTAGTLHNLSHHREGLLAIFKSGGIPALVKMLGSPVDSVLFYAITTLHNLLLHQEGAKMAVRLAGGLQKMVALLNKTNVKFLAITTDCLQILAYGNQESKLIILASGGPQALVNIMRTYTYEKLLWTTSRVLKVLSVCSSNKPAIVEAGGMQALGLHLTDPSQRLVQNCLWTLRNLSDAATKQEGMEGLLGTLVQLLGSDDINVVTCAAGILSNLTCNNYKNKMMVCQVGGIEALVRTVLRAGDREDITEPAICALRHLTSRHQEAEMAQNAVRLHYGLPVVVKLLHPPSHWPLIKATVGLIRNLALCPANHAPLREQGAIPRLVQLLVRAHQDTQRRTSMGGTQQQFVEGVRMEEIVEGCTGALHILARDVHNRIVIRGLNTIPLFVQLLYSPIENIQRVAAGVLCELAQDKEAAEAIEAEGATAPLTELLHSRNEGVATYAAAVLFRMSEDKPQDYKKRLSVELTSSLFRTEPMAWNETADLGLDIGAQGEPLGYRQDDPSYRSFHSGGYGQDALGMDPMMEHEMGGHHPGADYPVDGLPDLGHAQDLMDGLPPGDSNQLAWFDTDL
UniProt P49841: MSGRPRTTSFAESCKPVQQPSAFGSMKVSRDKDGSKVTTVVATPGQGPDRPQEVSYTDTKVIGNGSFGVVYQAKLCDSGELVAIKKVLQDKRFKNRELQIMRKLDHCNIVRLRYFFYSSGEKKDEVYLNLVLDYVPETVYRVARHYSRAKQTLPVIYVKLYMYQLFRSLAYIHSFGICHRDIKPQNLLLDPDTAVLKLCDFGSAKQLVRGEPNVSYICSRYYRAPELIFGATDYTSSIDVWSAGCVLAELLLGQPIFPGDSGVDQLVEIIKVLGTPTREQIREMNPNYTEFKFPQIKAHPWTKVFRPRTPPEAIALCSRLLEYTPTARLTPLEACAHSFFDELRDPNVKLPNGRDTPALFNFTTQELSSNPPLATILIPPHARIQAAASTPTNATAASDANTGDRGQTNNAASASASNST
UniProt P38936: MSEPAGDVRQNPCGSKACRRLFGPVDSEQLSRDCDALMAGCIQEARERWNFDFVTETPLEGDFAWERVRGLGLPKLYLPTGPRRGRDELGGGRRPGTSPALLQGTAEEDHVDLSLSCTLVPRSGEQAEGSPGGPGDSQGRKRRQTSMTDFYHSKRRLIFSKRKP

Legend:
[1] = biological target: T1, DNASE1L3, endogenous in Hep3B cells (human (endogenous in Hep3B)) (UniProt Q13609); assay: co-IP; endogenous Co-IP in Hep3B cells; 5 mg protein, 4 μg specific antibody or IgG, overnight at 4°C; Western blotting
T1 sequence: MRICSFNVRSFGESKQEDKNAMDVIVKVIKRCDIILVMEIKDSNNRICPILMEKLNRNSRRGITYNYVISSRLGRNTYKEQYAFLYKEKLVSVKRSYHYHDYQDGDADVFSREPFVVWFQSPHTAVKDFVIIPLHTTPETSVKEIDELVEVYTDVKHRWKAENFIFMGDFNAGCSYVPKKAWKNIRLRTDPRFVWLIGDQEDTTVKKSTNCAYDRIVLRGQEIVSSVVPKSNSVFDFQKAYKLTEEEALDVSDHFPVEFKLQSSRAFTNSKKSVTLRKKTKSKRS

[2] = biological target: T2, DNASE1L3 (deoxyribonuclease γ), overexpressed in Hep3B cells (human) (UniProt Q13609); assay: co-IP; exogenous Co-IP in Hep3B cells with overexpressed DNASE1L3; 5 mg protein, 4 μg specific antibody or IgG, overnight at 4°C; Western blotting
T2 sequence: T1 sequence

binding [1]	binding [2]	Substance
binds	binds	β-catenin, in Hep3B cells (from UniProt P35222 1-781)
	binds	GSK-3β, in Hep3B cells (from UniProt P49841 1-420) (enzyme)
	binds	P21, in Hep3B cells (from UniProt P38936 1-164)
